PubChem BioAssay AID1508588, Peter MacCallum Cancer Centre, 2020
The whole screen tested about 18,000 reagents; this is a part drawn at random. Over the whole deposit, 790 (4.4%) were called active. 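Calls rest on a combination of fold-change classes in drug and vehicle arms, not all shown here.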 A number with no mark means an inactive call.

Screen: 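Which gene losses make BRAF-mutant melanoma cells more responsive to vemurafenib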 (primary screen)
System: human WM266.4 melanoma cells (BRAF V600 mutant)
Knock-down reagent: siRNA pool against human genes, 40 nM
Duration: 96 h from transfection to read-out
Conditions: vemurafenib 300 nM (about IC25), added 48 h after transfection, for 48 h; comparison arm got DMSO vehicle only
Measured: 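Ratios to non-targeting siRNA for cell gain, counted as DAPI nuclei after minus before drug and averaged over two replicates, and for absorbance-read medium lactate per cell; both binned into fold-change classes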
Scale: cell gain with vemurafenib: higher = more cell gain than with non-targeting siRNA; lactate per cell with vemurafenib: higher = more lactate made per cell
Active means: 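a knock-down counts as enhancing when its fold-change classes with vehicle and with vemurafenib, taken together, show a stronger drug effect on cell gain or lactate per cell; exact class pairs not stated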
Meaning of the calls: active = enhances vemurafenib effect; inactive = no enhancement seen

gene symbol	cell gain with vemurafenib	lactate per cell with vemurafenib
YY1AP1 (GeneID 55249)	1	0.6
IL1A (GeneID 3552)	0.29	0.84
ATP5PB (GeneID 515)	0.13	1
DDX24 (GeneID 57062)	0.19	1.88
H1-5 (GeneID 3009)	0.31	0.74
PSAP (GeneID 5660)	0.74	1.64
GCNT3 (GeneID 9245)	1.06	1.21
HEXB (GeneID 3074)	0.72	1.31
CYBRD1 (GeneID 79901)	0.38	0.98
CLDN15 (GeneID 24146)	0.39	0.77
NAT10 (GeneID 55226)	0.36	1.63
GAR1 (GeneID 54433)	0.19	2.03
SMTNL2 (GeneID 342527)	0.31	2.2
MED7 (GeneID 9443)	0.3	0.34
GLI3 (GeneID 2737)	0.57	0.82
CKMT1A (GeneID 548596)	0.69	0.84
CACUL1 (GeneID 143384)	1.02	0.67
HDGF (GeneID 3068)	0.69	0.62
NEIL3 (GeneID 55247)	0.7 (active)	0.48
DBP (GeneID 1628)	0.56	1.15
STK31 (GeneID 56164)	0.45	1.29
EIF2B4 (GeneID 8890)	0.71	0.7
BICC1 (GeneID 80114)	0.69	0.9
RPL19P9 (GeneID 653314)	-0.04	1.4
CAPNS1 (GeneID 826)	0.7	0.79
TRPC7 (GeneID 57113)	0.36	0.78
GAGE2E (GeneID 26749)	0	0
OR8G5 (GeneID 219865)	0.83	0.77
ARHGDIG (GeneID 398)	0.89	1.54
MTMR11 (GeneID 10903)	0.33	0.68
TUBB (GeneID 203068)	0.47	1.61
CTXN3 (GeneID 613212)	0.81	1.64
GPX3 (GeneID 2878)	0.38	1.36
ALDH18A1 (GeneID 5832)	0.5	1.05
NDE1 (GeneID 54820)	-0.06	1.42
PTPRK (GeneID 5796)	0.71	1.53
KRT76 (GeneID 51350)	0.71	0.86
FGFR3 (GeneID 2261)	0.25	0.97
DDR1 (GeneID 780)	0.22	2.04
MAB21L3 (GeneID 126868)	0.45	0.99
MYH10 (GeneID 4628)	0.95	1.23
ZNF711 (GeneID 7552)	0.53	0.7
DAZAP2 (GeneID 9802)	0.62	0.86
CFL2 (GeneID 1073)	0.62	0.53
XKR3 (GeneID 150165)	0.68	0.87
SPC24 (GeneID 147841)	0.81	0.82
RNLS (GeneID 55328)	1.17	1.21
STK16 (GeneID 8576)	0.66	1.17
QSER1 (GeneID 79832)	0.29	1.44
TRMT61B (GeneID 55006)	0.51 (active)	0.7
GPLD1 (GeneID 2822)	0.71	0.73
WFDC1 (GeneID 58189)	0.84	0.64
RASGRF2 (GeneID 5924)	0.64	1.23
CKLF (GeneID 51192)	0.73	0.38
CCDC191 (GeneID 57577)	0.69	1.19
NMT1 (GeneID 4836)	1.16	0.88
CDC7 (GeneID 8317)	0.71	0.62
TOPBP1 (GeneID 11073)	0.08	2.79
GARIN6 (GeneID 196472)	1.11	0.62
MICOS13 (GeneID 125988)	0.85	0.64
OPA3 (GeneID 80207)	0.73	1.66
OAZ3 (GeneID 51686)	0.29	0.55
C16orf46 (GeneID 123775)	0	1.98
TTYH1 (GeneID 57348)	0.76	1.05
CASKIN1 (GeneID 57524)	0.93	0.89
MGST1 (GeneID 4257)	0.63	1.66
PRPF38A (GeneID 84950)	0.22	1.19
DOCK3 (GeneID 1795)	1.1	0.7

No new results follow: 13 of the entries above.
gene symbol	cell gain with vemurafenib	lactate per cell with vemurafenib
DDR1 (GeneID 780)	0.22	2.04
MAB21L3 (GeneID 126868)	0.45	0.99
MYH10 (GeneID 4628)	0.95	1.23
ZNF711 (GeneID 7552)	0.53	0.7
DAZAP2 (GeneID 9802)	0.62	0.86
CFL2 (GeneID 1073)	0.62	0.53
XKR3 (GeneID 150165)	0.68	0.87
SPC24 (GeneID 147841)	0.81	0.82
RNLS (GeneID 55328)	1.17	1.21
STK16 (GeneID 8576)	0.66	1.17
QSER1 (GeneID 79832)	0.29	1.44
TRMT61B (GeneID 55006)	0.51 (active)	0.7
GPLD1 (GeneID 2822)	0.71	0.73

Additional results follow.
gene symbol	cell gain with vemurafenib	lactate per cell with vemurafenib
KRTAP11-1 (GeneID 337880)	0.56	0.66
TTC36 (GeneID 143941)	1.03	0.88
FYRD1 (GeneID 84897)	0.47	1.46
ZNF184 (GeneID 7738)	0.55	0.58
COX6B1 (GeneID 1340)	0.03	0.84
TCEAL3 (GeneID 85012)	0.74	1.21
SUPV3L1 (GeneID 6832)	0.4	3.19
MRPL49 (GeneID 740)	0.57	1.5
MMACHC (GeneID 25974)	0.12	0.92
LGMN (GeneID 5641)	0.43	0.83
TMEM185A (GeneID 84548)	0.5	1.18
NUDCD1 (GeneID 84955)	0.8	0.65
SPHK1 (GeneID 8877)	0.3	0.98
OR9Q1 (GeneID 219956)	1.22	0.57
SHLD1 (GeneID 149840)	0.39	1.02
IL17A (GeneID 3605)	0.17	0.76
RBM33 (GeneID 155435)	0.61	1.43
MIOS (GeneID 54468)	0.43	1.27
CYTIP (GeneID 9595)	0.51	1.26
CYTH2 (GeneID 9266)	0.24	1.99
SNHG32 (GeneID 50854)	0.47	0.59
GSDMD (GeneID 79792)	1.1	0.62
CTSH (GeneID 1512)	0.3	0.78
TRAF3 (GeneID 7187)	0.84	1.33
ZNF529 (GeneID 57711)	0.19	1.75
TNIP3 (GeneID 79931)	0.48	0.27
POLR2J (GeneID 5439)	0.42	1.37
CLLU1-AS1 (GeneID 574016)	0.52	1.48
DCAF17 (GeneID 80067)	0.5	1.05
CCNG2 (GeneID 901)	0.6	1.04
C1QTNF9 (GeneID 338872)	1.11	0.82
MATN3 (GeneID 4148)	0.83	0.87
TDP1 (GeneID 55775)	0.83	0.74
NUCB1 (GeneID 4924)	0.66	0.6
PRMT2IP (GeneID 56905)	0.23	2.04
FBXO10 (GeneID 26267)	0.6	0.1
HOMER3 (GeneID 9454)	0.64	0.33
SLC36A1 (GeneID 206358)	0.3	0.64
ARF5 (GeneID 381)	0.82	1.06
